Data as given in PubChem BioAssay AID1259254 (NCATS, 2017).
The whole screen tested about 59,000 reagents; this is a part drawn at random. Of all reagents, about 1,550 (2.6%) are marked active. 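G2 share is only a proxy for re-replication; each gene was hit by three separate siRNAs, and active genes were retested.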 Unmarked entries are inactive. Further read-outs or replicates are left out here. Not stated in the record: the amount of reagent.

Aim: 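Genome-wide screen for genes that prevent DNA re-replication in cancer cells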 (primary screen)
Cells: human HCT116 colorectal cancer cells
Reagents: single siRNA against human genes
Time to read-out: 3 days
Measurement: 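Nuclei stained with Hoechst and imaged; cell-cycle phase assigned by DNA content; G2 share scaled per plate, non-targeting siRNA 0%, GMNN siRNA 100%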
Reading the numbers: G2 robust z-score: higher = more G2 cells, more excess DNA replication
Call rule: 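Active siRNAs have a G2 robust z of 5 or more median absolute deviations over the median, which in these data means about 38% or higher of GMNN control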

target gene,PubChem SID,G2 robust z-score
SNX15 (GeneID 29907),SID160739272,-0.66
SNX15 (GeneID 29907),SID160739273,-0.564
SNX15 (GeneID 29907),SID160739274,3.25
AMIGO2 (GeneID 347902),SID160765035,1.67
AMIGO2 (GeneID 347902),SID160765036,-0.744
AMIGO2 (GeneID 347902),SID160765037,-0.0798
TMSB4X (GeneID 7114),SID160718178,1.76
TMSB4X (GeneID 7114),SID160718180,0.905
TMSB4X (GeneID 7114),SID160718181,-0.198
PTCRA (GeneID 171558),SID160724903,-0.687
PTCRA (GeneID 171558),SID160760530,0.0483
PTCRA (GeneID 171558),SID160760531,1.21
UBTD2 (GeneID 92181),SID160754209,-0.852
UBTD2 (GeneID 92181),SID160754210,0.918
UBTD2 (GeneID 92181),SID160754211,0.781
JSRP1 (GeneID 126306),SID160724780,-1.15
JSRP1 (GeneID 126306),SID160732419,-0.558
JSRP1 (GeneID 126306),SID160756454,-1.01
TRPM5 (GeneID 29850),SID160739207,-1.26
TRPM5 (GeneID 29850),SID160739208,-0.535
TRPM5 (GeneID 29850),SID160739209,-0.876
ZNF888 (GeneID 388559),SID160765900,-0.917
ZNF888 (GeneID 388559),SID160765902,0.0303
ZNF888 (GeneID 388559),SID160765903,-0.0435
NFASC (GeneID 23114),SID160735482,-0.646
NFASC (GeneID 23114),SID160735483,-0.198
NFASC (GeneID 23114),SID160735484,0.413
IGF2R (GeneID 3482),SID160775623,1.69
IGF2R (GeneID 3482),SID160775624,-0.3
IGF2R (GeneID 3482),SID160775625,-1.09
CLSTN2 (GeneID 64084),SID160747418,0.445
CLSTN2 (GeneID 64084),SID160747419,0.892
CLSTN2 (GeneID 64084),SID160747420,-0.417
WDR83 (GeneID 84292),SID160735088,-0.299
WDR83 (GeneID 84292),SID160752078,1.97
WDR83 (GeneID 84292),SID160752079,0.157
AMY2B (GeneID 280),SID160717425,4.21
AMY2B (GeneID 280),SID160717435,1.36
AMY2B (GeneID 280),SID160723651,-0.145
ZC3HAV1 (GeneID 56829),SID160745168,-1.06
ZC3HAV1 (GeneID 56829),SID160745169,3.11
ZC3HAV1 (GeneID 56829),SID160745170,-0.0124
EHD4 (GeneID 30844),SID160739551,-0.315
EHD4 (GeneID 30844),SID160739552,-0.421
EHD4 (GeneID 30844),SID160739553,-0.662
DRGX (GeneID 644168),SID160733863,-0.468
DRGX (GeneID 644168),SID160769129,0.689
DRGX (GeneID 644168),SID160769130,2.24
NDEL1 (GeneID 81565),SID160750823,2.98
NDEL1 (GeneID 81565),SID160750824,-0.687
NDEL1 (GeneID 81565),SID160750825,0.633
RPSAP9 (GeneID 653162),SID160770946,3
RPSAP9 (GeneID 653162),SID160770949,1.86
RPSAP9 (GeneID 653162),SID160770950,-0.75
CYFIP2 (GeneID 26999),SID160738232,0.0246
CYFIP2 (GeneID 26999),SID160738233,-0.531
CYFIP2 (GeneID 26999),SID160738234,-0.221
GNRH1 (GeneID 2796),SID160772371,-0.62
GNRH1 (GeneID 2796),SID160772382,0.633
GNRH1 (GeneID 2796),SID160772392,0.112
GYPE (GeneID 2996),SID160723825,-0.239
GYPE (GeneID 2996),SID160774761,0.479
GYPE (GeneID 2996),SID160774762,0.45
CGREF1 (GeneID 10669),SID160729010,0.419
CGREF1 (GeneID 10669),SID160729011,1.43
CGREF1 (GeneID 10669),SID160730466,-0.197
CHCHD2P8 (GeneID 646630),SID160725962,0.426
CHCHD2P8 (GeneID 646630),SID160734002,-0.317
CHCHD2P8 (GeneID 646630),SID160769963,-0.409
CCDC122 (GeneID 160857),SID160759808,-0.184
CCDC122 (GeneID 160857),SID160759809,-0.154
CCDC122 (GeneID 160857),SID160759810,0.84
PPIAP55 (GeneID 342541),SID160725101,-0.134
PPIAP55 (GeneID 342541),SID160764623,0.366
PPIAP55 (GeneID 342541),SID160764624,-1.02
NELL1 (GeneID 4745),SID160777951,-0.296
NELL1 (GeneID 4745),SID160777952,-1.22
NELL1 (GeneID 4745),SID160777953,5.3 (active)
NSD1 (GeneID 64324),SID160747655,-0.641
NSD1 (GeneID 64324),SID160747657,-0.244
NSD1 (GeneID 64324),SID160747658,8.89 (active)
ISG15 (GeneID 9636),SID160722675,1.69
ISG15 (GeneID 9636),SID160724229,3.55
ISG15 (GeneID 9636),SID160735237,5.27 (active)
ADORA2A (GeneID 135),SID160714702,0.0486
ADORA2A (GeneID 135),SID160714713,1.16
ADORA2A (GeneID 135),SID160714725,0.667
